Measurements as given in patent US20110111406A1.
Changes are numbered by the printed parent chain. No constants are given. Whether binding was seen depends on the method and setting. Binding can be weak; no strength is given.

B1: Fv1-M71 (antibody, human IgG2, kappa)
heavy: QVQLQESGPGLVKPSETLSLTCAVSGYSISHDHAWSWVRQPPGEGLEWIGHISYSGITNYNPHLQDRVTISRDTSKNQFSLKLSSVTAADTAVYYCARFLARITAHDHWGEGTLVTVSSASTKGPSVFPLAPCSRSTSESTAALGCLVKDYFPEPVTVSWNSGALTSGVHTFPAVLQSSGLYSLSSVVTVPSSNFGTQTYTCNVDHKPSNTKVDKTVERKCCVECPPCPAPPVAGPSVFLFPPKPKDTLMISRTPEVTCVVVDVSHEDPEVQFNWYVDGVEVHNAKTKPREEQFNSTFRVVSVLTVVHQDWLNGKEYKCKVSNKGLPAPIEKTISKTKGQPREPQVYTLPPSREEMTKNQVSLTCLVKGFYPSDIAVEWESNGQPENNYKTTPPMLDSDGSFFLYSKLTVDKSRWQQGNVFSCSVMHEALHAHYTQKSLSLSPGK
light: DIQMTQSPSSLSASVGDSVTITCQASRDISSHLNWYQQKPGKAPELLIYYGSHLESGVPSRFSGSGSGTDFTFTISSLEAEDAATYYCGQGNRLPYTFGQGTKVEIERTVAAPSVFIFPPSDEQLKSGTASVVCLLNNFYPREAKVQWKVDNALQSGNSQESVTEQDSKDSTYSLSSTLTLSKADYEKHKVYACEVTHQGLSSPVTKSFNRGEC
B2: Fv1-M73 (antibody)
heavy: QVQLQESGPGLVKPSETLSLTCAVSGYSISHDHAWSWVRQPPGEGLEWIGHISYSGITNYNPHLQDRVTISRDTSKNQFSLKLSSVTAADTAVYYCARFLARITAHDHWGEGTLVTVSSASTKGPSVFPLAPSSKSTSGGTAALGCLVKDYFPEPVTVSWNSGALTSGVHTFPAVLQSSGLYSLSSVVTVPSSNFGTQTYTCNVDHKPSNTKVDKTVERKSCVECPPCPAPPVAGPSVFLFPPKPKDTLMISRTPEVTCVVVDVSQEDPEVQFNWYVDGVEVHNAKTKPREEQFNSTFRVVSVLTVVHQDWLNGKEYKCKVSNKGLPAPIEKTISKTKGQPREPQVYTLPPSQEEMTKNQVSLTCLVKGFYPSDIAVEWESNGQPENNYKTTPPMLDSDGSFFLYSKLTVDKSRWQEGNVFSCSVMHEALHAHYTQKSLSLSP
light: B1 light
B3: Fv2-IgG1 (antibody, V domains shown)
VH: QVQLQESGPGLVKPSETLSLTCAVSGYSISHDHAWSWVRQPPGEGLEWIGHISYSGITNYNPHLQDRVTISRDTSKNQFSLKLSSVTAADTAAYYCARFLARITAHDHWGEGTLVTVSS
VL: DIQMTQSPSSLSASVGDSVTITCQASQDISSHLNWYQQKPGKAPELLIYYGSHLHSGVPSRFSGSGSGTDFTFTISSLEAEDAATYYCGQGNRLPYTFGQGTKVEIE
B4: H170/L82 (antibody, IgG1, V domains shown)
VH: B3 VH with Y27H, D32H, W35H, H51Y, N59H, Q65K, D66G, F99V, H106M
VL: B3 VL
B5: CLH5/L73 (antibody, IgG1, V domains shown)
VH: B3 VH with Q65K, D66G
VL: B3 VL with D28H

Assays:
[1] = target: recombinant soluble human IL-6 receptor (SR344) (human); experiment: Biacore T100, SR344 as analyte, pH 7.4
[2] = target: recombinant soluble human IL-6 receptor (SR344) (human); experiment: Biacore T100, immobilized biotinylated SR344 (membrane-type IL-6 receptor model)
[3] = target: recombinant soluble human IL-6 receptor (SR344) (human); experiment: Biacore T100, SR344 as analyte and immobilized biotinylated SR344
[4] = target: recombinant soluble human IL-6 receptor (SR344) (human); experiment: Biacore T100, antibody on protein A/G, ten cycles of SR344 (about 40 nM) at pH 7.4 and exposure to pH 5.8, 37C
[5] = target: recombinant soluble human IL-6 receptor (SR344) (human); experiment: Biacore T100, SR344 as analyte, pH 7.4 and pH 5.8
[6] = target: recombinant soluble human IL-6 receptor (SR344) (human); experiment: Biacore, SR344 as analyte and immobilized biotinylated SR344
[7] = target: recombinant soluble human IL-6 receptor (SR344) (human); experiment: Biacore T100, immobilized biotinylated SR344 (membrane IL-6 receptor model)

Row | binding [1] | binding [2] | binding [3] | binding [4] | binding [5] | binding [6] | binding [7] | Binder
1 | binds | binds | – | – | – | – | – | B1
2 | binds | binds | – | – | – | – | – | B2
3 | binds | binds | binds | – | – | – | – | B3
4 | – | – | – | binds | binds | binds | binds | B4
5 | – | – | – | binds | – | – | binds | B5
